Measured values as given in US20100285022A1.

B1: human monoclonal antibody 1G1 (antibody, V domains shown)
VH: QVHLVQSGVEVKKPGASVRVSCKASGYTFATYGITWVRQAPGRGLEWVGWITPYNDRTSYAQIFHGRVTMTTDTSTNTAYMELRSLRSDDTAMYYCARNHCNFYHDFWSGLDYWGQGTLVSVSS
VL: SFELTQPPSVSVSPGQTARITCSGDALPKQYVYWYQQKPGQAPVLVIYKTTERPSGIPERFSDSSSGTTVTLTISAAQAEDEADYYCQSVDSSGTYVFGIGTKVTVL
B2: human monoclonal antibody 2D10 (antibody, V domains shown)
VH: QVQLVQSGPEVKKPGASVRLSCKASGYVFTNYGVSWVRQAPGQGLEWMGWSSPYNGNTYYAQKLKARVTMTTDTSTNTAYMELRSLRSDDTAVYYCGRDMLGVVQAVAGPFDSWGQGTLVTVSS
VL: DTPMTQSPSSVSASVGDRVTISCRASQGISNSLAWYQQKLGKAPQLLIYAASSLQSGVPSRFSGSGSGTDFTLTISSLQPEDFATYYCQQTNTFPFTFGPGTKVEVR
B3: human monoclonal antibody 1F12 (antibody, V domains shown)
VH: QVQLVQSESEVKKPGASVTVSCKPSGYTFNTYYIHWVRQAPGQGLEWMGVINPSGGSTTYTQRFQDRVTMTTDTSTNTIYMDLTSLRSDDTAMYYCVRGSNLLPHLWEWKPSHFDSWGQGTLVTVSS
VL: EIVLTQSPGTLSLSPGERATLSCRASQSITNNYLAWYQQKPGQAPRLLIYDSFSRATGIPERFSGSGSGTDFTLTISRLEPEDFAVYYCQHYVRSPLTFGPGTKVEIK

Each binder was assayed against RSV G protein of strain B (Gb protein) (respiratory syncytial virus, strain B) (assay: reactivity column of Table 1).
For B1, the binding was “binds”. For B2, the binding was “binds”. B3 was tested, and the binding was “binds”.

Results are given in words; binding and its absence hold for the method and conditions named. Binding calls can cover weak binding; strength is not graded here.
